Measurements as given in publication PMC8278077.
Results are given in words; binding and its absence hold for the method and conditions named. Binding seen in cells or lysates may run through a third protein. Some binding calls cover weakened binding; strength is not graded here. For part of these data: Where a sequence is shown, tags or fusion partners need not be part of it.

Protein sequences, listed by entry. Tags and fused reporters are not part of them.
UniProt P21333: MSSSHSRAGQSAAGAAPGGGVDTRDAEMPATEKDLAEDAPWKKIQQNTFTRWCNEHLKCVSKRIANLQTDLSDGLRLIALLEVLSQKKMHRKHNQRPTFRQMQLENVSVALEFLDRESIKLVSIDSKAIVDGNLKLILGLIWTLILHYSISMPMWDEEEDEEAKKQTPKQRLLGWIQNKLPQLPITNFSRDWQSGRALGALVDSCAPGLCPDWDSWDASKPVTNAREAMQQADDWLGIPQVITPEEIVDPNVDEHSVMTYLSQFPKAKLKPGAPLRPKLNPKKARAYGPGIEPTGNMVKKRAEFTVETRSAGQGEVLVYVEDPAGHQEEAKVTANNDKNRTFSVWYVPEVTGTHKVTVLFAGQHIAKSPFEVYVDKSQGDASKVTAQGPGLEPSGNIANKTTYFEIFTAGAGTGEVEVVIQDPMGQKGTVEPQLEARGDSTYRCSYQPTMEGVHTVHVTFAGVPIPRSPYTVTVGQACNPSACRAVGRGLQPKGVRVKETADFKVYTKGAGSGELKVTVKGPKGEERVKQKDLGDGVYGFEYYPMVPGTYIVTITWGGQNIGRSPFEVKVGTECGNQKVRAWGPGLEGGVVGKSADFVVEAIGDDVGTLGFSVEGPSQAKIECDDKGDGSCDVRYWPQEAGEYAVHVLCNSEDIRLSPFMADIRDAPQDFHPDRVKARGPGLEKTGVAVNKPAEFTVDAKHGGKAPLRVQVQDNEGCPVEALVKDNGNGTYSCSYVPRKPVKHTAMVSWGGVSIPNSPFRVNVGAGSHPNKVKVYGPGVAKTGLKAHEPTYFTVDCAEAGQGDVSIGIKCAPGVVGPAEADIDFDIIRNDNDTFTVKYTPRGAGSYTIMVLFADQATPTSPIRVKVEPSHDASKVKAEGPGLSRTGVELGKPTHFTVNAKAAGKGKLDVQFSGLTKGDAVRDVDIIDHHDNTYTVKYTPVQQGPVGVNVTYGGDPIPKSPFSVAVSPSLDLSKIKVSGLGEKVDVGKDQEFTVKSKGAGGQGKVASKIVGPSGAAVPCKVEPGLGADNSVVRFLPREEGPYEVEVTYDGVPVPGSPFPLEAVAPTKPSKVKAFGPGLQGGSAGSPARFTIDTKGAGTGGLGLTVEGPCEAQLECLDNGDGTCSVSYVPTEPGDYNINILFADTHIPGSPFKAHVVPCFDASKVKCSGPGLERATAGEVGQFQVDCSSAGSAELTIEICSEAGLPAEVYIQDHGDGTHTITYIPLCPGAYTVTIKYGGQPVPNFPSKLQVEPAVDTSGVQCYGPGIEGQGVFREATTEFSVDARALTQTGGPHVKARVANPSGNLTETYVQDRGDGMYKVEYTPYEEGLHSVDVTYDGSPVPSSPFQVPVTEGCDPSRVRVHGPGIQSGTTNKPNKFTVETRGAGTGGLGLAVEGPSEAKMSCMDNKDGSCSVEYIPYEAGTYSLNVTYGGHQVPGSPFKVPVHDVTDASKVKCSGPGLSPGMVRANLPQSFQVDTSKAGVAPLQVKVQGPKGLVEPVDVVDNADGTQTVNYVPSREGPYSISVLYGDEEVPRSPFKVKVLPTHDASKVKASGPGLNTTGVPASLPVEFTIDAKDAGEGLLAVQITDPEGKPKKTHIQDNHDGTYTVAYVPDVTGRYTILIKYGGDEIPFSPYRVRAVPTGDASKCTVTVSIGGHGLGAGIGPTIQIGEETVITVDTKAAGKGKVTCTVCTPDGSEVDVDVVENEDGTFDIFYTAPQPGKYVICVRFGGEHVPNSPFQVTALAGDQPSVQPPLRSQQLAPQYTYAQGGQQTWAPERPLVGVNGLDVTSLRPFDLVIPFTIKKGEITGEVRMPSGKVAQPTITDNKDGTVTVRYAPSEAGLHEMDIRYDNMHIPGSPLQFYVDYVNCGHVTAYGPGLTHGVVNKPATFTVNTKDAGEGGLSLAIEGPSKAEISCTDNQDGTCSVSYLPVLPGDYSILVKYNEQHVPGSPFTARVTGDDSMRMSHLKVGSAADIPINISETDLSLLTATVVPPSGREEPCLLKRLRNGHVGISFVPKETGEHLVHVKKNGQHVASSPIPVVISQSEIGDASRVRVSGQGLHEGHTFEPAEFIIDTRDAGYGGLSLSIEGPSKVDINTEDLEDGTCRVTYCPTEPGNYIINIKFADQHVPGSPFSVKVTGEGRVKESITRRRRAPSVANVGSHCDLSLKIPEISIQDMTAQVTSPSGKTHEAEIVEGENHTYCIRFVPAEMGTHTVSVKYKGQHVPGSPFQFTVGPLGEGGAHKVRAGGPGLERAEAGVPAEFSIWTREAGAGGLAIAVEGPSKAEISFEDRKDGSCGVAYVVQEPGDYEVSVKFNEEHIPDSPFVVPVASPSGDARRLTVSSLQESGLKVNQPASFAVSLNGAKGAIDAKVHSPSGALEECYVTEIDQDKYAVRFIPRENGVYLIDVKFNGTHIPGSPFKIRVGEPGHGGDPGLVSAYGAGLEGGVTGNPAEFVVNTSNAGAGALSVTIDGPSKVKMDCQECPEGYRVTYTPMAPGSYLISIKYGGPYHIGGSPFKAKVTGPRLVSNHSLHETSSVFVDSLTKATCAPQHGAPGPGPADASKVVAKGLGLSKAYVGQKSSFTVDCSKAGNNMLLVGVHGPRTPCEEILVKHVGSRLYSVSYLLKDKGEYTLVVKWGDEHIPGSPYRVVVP

Key:
[1] = biological target: T1, Latexin (LXN), endogenous in HUVECs (human (endogenous in HUVEC)) (UniProt Q9BS40); assay: co-IP; endogenous proteins in HUVEC lysate; IP with anti-LXN antibody, 10% SDS-PAGE, immunoblotting
T1 sequence: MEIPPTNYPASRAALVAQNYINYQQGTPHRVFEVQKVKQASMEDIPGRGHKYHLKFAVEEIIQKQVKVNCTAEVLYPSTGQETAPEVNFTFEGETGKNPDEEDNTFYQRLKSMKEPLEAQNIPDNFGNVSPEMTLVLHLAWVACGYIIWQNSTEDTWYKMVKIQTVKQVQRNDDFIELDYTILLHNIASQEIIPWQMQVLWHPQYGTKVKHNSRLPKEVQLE

Flag-LXN = biological target: T2, Flag-LXN (UniProt Q9BS40); assay: co-IP; 293T cells co-transfected with HA-FLNA and Flag-LXN expression vectors; IP with anti-HA or anti-Flag antibody, Western blot
T2 sequence: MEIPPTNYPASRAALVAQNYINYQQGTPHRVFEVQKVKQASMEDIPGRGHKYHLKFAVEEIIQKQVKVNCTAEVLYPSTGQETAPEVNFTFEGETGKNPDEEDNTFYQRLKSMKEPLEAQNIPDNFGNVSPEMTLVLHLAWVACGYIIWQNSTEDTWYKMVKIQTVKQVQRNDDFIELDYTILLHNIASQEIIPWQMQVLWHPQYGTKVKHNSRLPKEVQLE

HA-FLNA = HA-FLNA (UniProt P21333); assay: as above

Molecule: Filamin A (FLNA), endogenous in HUVECs (from UniProt P21333 1-2647)
- binding [1]: binds

Molecule: HA-FLNA (from UniProt P21333 1-2647)
- binding (Flag-LXN): binds

B1: Flag-LXN (protein, UniProt Q9BS40 1-222)
chain: MEIPPTNYPASRAALVAQNYINYQQGTPHRVFEVQKVKQASMEDIPGRGHKYHLKFAVEEIIQKQVKVNCTAEVLYPSTGQETAPEVNFTFEGETGKNPDEEDNTFYQRLKSMKEPLEAQNIPDNFGNVSPEMTLVLHLAWVACGYIIWQNSTEDTWYKMVKIQTVKQVQRNDDFIELDYTILLHNIASQEIIPWQMQVLWHPQYGTKVKHNSRLPKEVQLE
- binding (HA-FLNA): binds
